Results taken from publication PMC7033119.
These are yes or no findings as the source states them, for the method shown.

B1: Hs mt-AlaRS (residues 31-C) (enzyme, UniProt Q5JTZ9 31-985)
chain: SSEPPAAKASAVRAAFLNFFRDRHGHRLVPSASVRPRGDPSLLFVNAGMNQFKPIFLGTVDPRSEMAGFRRVANSQKCVRAGGHHNDLEDVGRDLSHHTFFEMLGNWAFGGEYFKEEACNMAWELLTQVYGIPEERLWISYFDGDPKAGLDPDLETRDIWLSLGVPASRVLSFGPQENFWEMGDTGPCGPCTEIHYDLAGGVGAPQLVELWNLVFMQHNREADGSLQPLPQRHVDTGMGLERLVAVLQGKHSTYDTDLFSPLLNAIQQGCRAPPYLGRVGVADEGRTDTAYRVVADHIRTLSVCISDGIFPGMSGPPLVLRRILRRAVRFSMEILKAPPGFLGSLVPVVVETLGDAYPELQRNSAQIANLVSEDEAAFLASLERGRRIIDRTLRTLGPSDMFPAEVAWSLSLCGDLGLPLDMVELMLEEKGVQLDSAGLERLAQEEAQHRARQAEPVQKQGLWLDVHALGELQRQGVPPTDDSPKYNYSLRPSGSYEFGTCEAQVLQLYTEDGTAVASVGKGQRCGLLLDRTNFYAEQGGQASDRGYLVRAGQEDVLFPVARAQVCGGFILHEAVAPECLRLGDQVQLHVDEAWRLGCMAKHTATHLLNWALRQTLGPGTEQQGSHLNPEQLRLDVTTQTPLTPEQLRAVENTVQEAVGQDEAVYMEEVPLALTAQVPGLRSLDEVYPDPVRVVSVGVPVAHALDPASQAALQTSVELCCGTHLLRTGAVGDLVIIGDRQLSKGTTRLLAVTGEQAQQARELGQSLAQEVKAATERLSLGSRDVAEALRLSKDIGRLIEAVETAVMPQWQRRELLATVKMLQRRANTAIRKLQMGQAAKKTQELLERHSKGPLIVDTVSAESLSVLVKVVRQLCEQAPSTSVLLLSPQPMGKVLCACQVAQGAMPTFTAEAWALAVCSHMGGKAWGSRVVAQGTGSTTDLEAALSIAQTYALSQL
B2: Hs mt C-Ala (783-985) (domain or fragment, UniProt Q5JTZ9 783-985)
chain: GEQAQQARELGQSLAQEVKAATERLSLGSRDVAEALRLSKDIGRLIEAVETAVMPQWQRRELLATVKMLQRRANTAIRKLQMGQAAKKTQELLERHSKGPLIVDTVSAESLSVLVKVVRQLCEQAPSTSVLLLSPQPMGKVLCACQVAQGAMPTFTAEAWALAVCSHMGGKAWGSRVVAQGTGSTTDLEAALSIAQTYALSQL

Tests used:
[1] = molecular target: Hs mt-AlaRS (residues 31-C) (human) (UniProt Q5JTZ9); test: SEC; size exclusion chromatography experiments; conditions not told for this experiment; both purified
[2] = molecular target: Hs mt C-Ala (783-985) (human) (UniProt Q5JTZ9); test: crystal structure; crystal structure analysis of mt C-Ala (constructs 873-C, 802-C, 783-C); no dimer as in prokaryotic AlaRSs; both purified

Row | Binder | binding [1] | binding [2]
1 | B1 | no binding | 
2 | B2 |  | no binding
